Measured data: PubChem BioAssay AID1259308 (NCATS, 2017)
Test: 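Knock-downs that increase output of a recombinant reporter protein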 (primary screen). Cell system: human HEK293 embryonic kidney cells stably expressing firefly luciferase (HEK-CMV-Luc2-Hygro). Knock-down reagent: single siRNA against human genes, 0.8 pmol siRNA per well. Time to read-out: 72 h. Measured: 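Luciferase light (ONE-Glo) measured on one replicate plate set and viability (CellTiter-Glo) on the other, scaled to a negative control siRNA, with robust z-scores and luciferase per cell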. Direction: total luciferase, z-score and total luciferase, % of control: higher = more reporter protein produced. Active means: 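Active when the median/MAD z-score for overall luciferase is greater than 3; a gene was taken forward for validation with new siRNAs if at least two of its three siRNAs passed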. Meaning of the calls: active = raised luciferase; inactive = no rise.
Here is one part, drawn at random, of about 59,000 reagents tested. About 1,510 of all reagents (2.6%) were called active. 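Calls use total luciferase alone and ignore viability, so some active siRNAs may act by altering cell number.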 Unmarked entries are inactive. The numbers tell different reagents against one gene apart. Further read-outs or replicates are left out here.

CTNNA3 #1 | total luciferase, z-score: 1.01; total luciferase, % of control: 102
CTNNA3 #2 | total luciferase, z-score: -0.474; total luciferase, % of control: 72.5
CTNNA3 #3 | total luciferase, z-score: -1.25; total luciferase, % of control: 57
NCALD #1 | total luciferase, z-score: -0.298; total luciferase, % of control: 76
NCALD #2 | total luciferase, z-score: -0.178; total luciferase, % of control: 78.3
NCALD #3 | total luciferase, z-score: 0.206; total luciferase, % of control: 86
SLC22A16 #1 | total luciferase, z-score: -1.17; total luciferase, % of control: 58.7
SLC22A16 #2 | total luciferase, z-score: -0.891; total luciferase, % of control: 64.2
SLC22A16 #3 | total luciferase, z-score: -1.58; total luciferase, % of control: 50.5
PRY #1 | total luciferase, z-score: 0.411; total luciferase, % of control: 90.1
PRY #2 | total luciferase, z-score: 0.523; total luciferase, % of control: 92.3
PRY #3 | total luciferase, z-score: 3.25 (active); total luciferase, % of control: 147
SAMD3 #1 | total luciferase, z-score: 0.451; total luciferase, % of control: 90.9
SAMD3 #2 | total luciferase, z-score: 0.42; total luciferase, % of control: 90.2
SAMD3 #3 | total luciferase, z-score: 0.755; total luciferase, % of control: 96.9
DUX4L16 #1 | total luciferase, z-score: -0.284; total luciferase, % of control: 76.2
DUX4L16 #2 | total luciferase, z-score: -0.31; total luciferase, % of control: 75.7
DUX4L16 #3 | total luciferase, z-score: -0.103; total luciferase, % of control: 79.8
SUMO4 #1 | total luciferase, z-score: 2.16; total luciferase, % of control: 125
SUMO4 #2 | total luciferase, z-score: -0.41; total luciferase, % of control: 73.7
SUMO4 #3 | total luciferase, z-score: -0.185; total luciferase, % of control: 78.2
LRRC19 #1 | total luciferase, z-score: -0.29; total luciferase, % of control: 76.1
LRRC19 #2 | total luciferase, z-score: 1.74; total luciferase, % of control: 117
LRRC19 #3 | total luciferase, z-score: 0.288; total luciferase, % of control: 87.6
ZFAND2A #1 | total luciferase, z-score: 1.75; total luciferase, % of control: 117
ZFAND2A #2 | total luciferase, z-score: 2.82; total luciferase, % of control: 138
ZFAND2A #3 | total luciferase, z-score: 1.73; total luciferase, % of control: 116
TRAPPC6B #1 | total luciferase, z-score: 1.77; total luciferase, % of control: 117
TRAPPC6B #2 | total luciferase, z-score: -0.154; total luciferase, % of control: 78.8
TRAPPC6B #3 | total luciferase, z-score: 1.32; total luciferase, % of control: 108
SLC17A3 #1 | total luciferase, z-score: -0.42; total luciferase, % of control: 73.5
SLC17A3 #2 | total luciferase, z-score: 0.389; total luciferase, % of control: 89.6
SLC17A3 #3 | total luciferase, z-score: -2.19; total luciferase, % of control: 38.4

Targets above whose gene name starts with D or d:
DUX4L16 #1 | total luciferase, z-score: -0.284; total luciferase, % of control: 76.2
DUX4L16 #2 | total luciferase, z-score: -0.31; total luciferase, % of control: 75.7
DUX4L16 #3 | total luciferase, z-score: -0.103; total luciferase, % of control: 79.8
